Laboratory results published in PMC3044721.
Results are given in words; binding and its absence hold for the method and conditions named. Binding seen in cells or lysates may run through a third protein. Some entries that bind do so weakly or less than the wild type.

The chains behind the UniProt entries cited, without tags or fusion partners.
UniProt P03430: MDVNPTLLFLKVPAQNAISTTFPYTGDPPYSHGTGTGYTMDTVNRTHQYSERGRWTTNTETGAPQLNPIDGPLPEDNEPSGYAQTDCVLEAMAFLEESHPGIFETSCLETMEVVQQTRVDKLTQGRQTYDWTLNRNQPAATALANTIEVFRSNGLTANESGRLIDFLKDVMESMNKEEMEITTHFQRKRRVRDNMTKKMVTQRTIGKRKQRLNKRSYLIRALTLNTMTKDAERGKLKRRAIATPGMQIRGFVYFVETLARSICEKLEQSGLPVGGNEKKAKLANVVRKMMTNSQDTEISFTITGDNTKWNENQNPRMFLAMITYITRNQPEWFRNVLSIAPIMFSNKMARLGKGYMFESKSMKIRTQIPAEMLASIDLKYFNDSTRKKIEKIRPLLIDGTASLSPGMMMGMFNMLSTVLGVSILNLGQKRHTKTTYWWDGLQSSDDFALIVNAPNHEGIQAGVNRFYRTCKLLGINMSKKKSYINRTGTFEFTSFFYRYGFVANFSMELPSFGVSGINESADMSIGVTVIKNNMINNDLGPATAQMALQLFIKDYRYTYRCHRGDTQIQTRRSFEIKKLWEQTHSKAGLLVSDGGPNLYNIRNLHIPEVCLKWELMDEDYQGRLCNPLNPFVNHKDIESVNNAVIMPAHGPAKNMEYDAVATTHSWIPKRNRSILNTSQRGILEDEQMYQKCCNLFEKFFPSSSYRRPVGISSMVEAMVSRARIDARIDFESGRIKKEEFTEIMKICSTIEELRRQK
UniProt P03427: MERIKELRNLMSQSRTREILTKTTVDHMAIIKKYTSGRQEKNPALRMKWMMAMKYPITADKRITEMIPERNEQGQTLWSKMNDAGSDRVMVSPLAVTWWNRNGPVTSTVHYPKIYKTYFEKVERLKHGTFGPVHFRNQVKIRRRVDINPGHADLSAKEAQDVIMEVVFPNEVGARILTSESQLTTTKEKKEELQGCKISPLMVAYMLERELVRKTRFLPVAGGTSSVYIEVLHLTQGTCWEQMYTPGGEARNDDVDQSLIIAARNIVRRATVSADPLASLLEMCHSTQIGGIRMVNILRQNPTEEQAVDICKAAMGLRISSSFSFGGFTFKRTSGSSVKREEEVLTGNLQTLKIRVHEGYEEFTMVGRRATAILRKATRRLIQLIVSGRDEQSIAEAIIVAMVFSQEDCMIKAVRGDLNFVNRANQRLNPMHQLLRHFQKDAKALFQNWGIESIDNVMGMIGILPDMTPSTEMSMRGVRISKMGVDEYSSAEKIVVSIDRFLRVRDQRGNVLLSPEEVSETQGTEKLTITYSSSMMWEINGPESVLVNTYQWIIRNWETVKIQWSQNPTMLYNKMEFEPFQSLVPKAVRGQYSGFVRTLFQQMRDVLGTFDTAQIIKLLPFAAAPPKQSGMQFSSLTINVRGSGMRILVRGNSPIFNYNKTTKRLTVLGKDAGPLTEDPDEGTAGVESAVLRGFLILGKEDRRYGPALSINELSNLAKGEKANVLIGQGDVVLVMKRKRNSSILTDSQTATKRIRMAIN
UniProt P15682: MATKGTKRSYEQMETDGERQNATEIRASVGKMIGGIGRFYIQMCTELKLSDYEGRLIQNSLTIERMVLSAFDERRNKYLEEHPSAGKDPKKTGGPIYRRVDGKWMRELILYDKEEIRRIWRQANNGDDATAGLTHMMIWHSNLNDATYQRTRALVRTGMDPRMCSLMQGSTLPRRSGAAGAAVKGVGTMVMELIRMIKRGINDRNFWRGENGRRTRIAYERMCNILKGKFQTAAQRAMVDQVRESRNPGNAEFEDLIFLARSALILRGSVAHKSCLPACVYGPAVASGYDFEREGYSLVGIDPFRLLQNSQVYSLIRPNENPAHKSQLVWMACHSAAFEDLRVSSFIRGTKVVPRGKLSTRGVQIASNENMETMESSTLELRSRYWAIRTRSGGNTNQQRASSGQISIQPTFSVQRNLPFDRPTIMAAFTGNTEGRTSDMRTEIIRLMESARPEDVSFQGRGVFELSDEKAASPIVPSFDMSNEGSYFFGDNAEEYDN

Columns and labels:
[1] = molecular target: PB1 in the in vitro GST pull-down with NP (data not shown) (influenza A virus (strain not stated)) (UniProt P03430); test: pull-down
[2] = molecular target: PB2 in the in vitro GST pull-down with NP (data not shown) (influenza A virus (strain not stated)) (UniProt P03427); test: pull-down

For “NP in the in vitro GST pull-down (data not shown) (from UniProt P15682 1-498)”, the binding [1] was “binds” and the binding [2] was “binds”.
